No constants are given. Whether binding was seen depends on the method and setting. Binding calls can cover weak binding; strength is not graded here.
Target: β-tubulin (in the GDP-taxol microtubule) (porcine)
Test: cryo-EM structure; GDP-taxol MTs (4 μM) on the grid, 353WT (28 μM) applied, apyrase (nucleotide-free state); 7.0 Å; both purified

binding: binds
B1: KIF19A-353 (mouse KIF19A motor domain, monomeric construct) (domain or fragment, UniProt Q99PT9 1-353)
chain: MKDSGDSKDQQLMVALRVRPISVAELEEGATLIAHKMDEQMVVLMDPMEDPDDILRAHRSREKSYLFDVAFDFTATQEMVYQATTKSLIEGVISGYNATVFAYGPTGCGKTYTMLGTDHEPGIYVRTLNDLFRAIEETSNDMEYEVSMSYLEIYNEMIRDLLNPALGYLELREDSKGVIQVAGITEVSTINAKEIMQLLMKGNRQRTQEPTAANQTSSRSHAVLQVAVRQRSRVKNILQEVRQGRLFMIDLAGSERASQTQNRGQRMKEGAHINRSLLALGNCINALSDKGSNKYINYRDSKLTRLLKDSLGGNSRTVMIAHISPASTAFEESRNTLTYAGRAKNIRTRVKQN

From paper PMC5045296
